In the supplement of paper PMC6078165:
The reference is the same well before dosing, and untreated signal decays as well.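 Labels refer to human fibroblasts, largely primary: uterine (C12385, HUF), lung (H6013), bone (Hs27A), adrenal (HADF), skin (WS1), plus mammary HMF and breast cancer-associated Hs343T. Cancer lines are basal-like or mesenchymal-like triple-negative breast cancer. The paper counts as hits responses shifting over 3x the replicate standard deviation. The tissue of the other fibroblasts is not given here.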

Tested on: MDAMB436
Experiment: relative JC-1 red fluorescence (viability) vs pre-drug, coculture with fibroblast (fraction); higher = more viable cancer cells
Experimental: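 JC-1 labelled TNBC cells cocultured 1:1 (1,500 cells each) with CellTrace Violet stained primary or stromal fibroblasts in 384-well plates in FluoroBrite medium, treated with one of 42 anticancer drugs at 0.1, 1, 10 or 100 uM. JC-1 red fluorescence (mitochondrial integrity in cancer cells only) was read by plate reader every 8 h for 72 h. Values are normalised to each well's pre-drug value. The stock of one drug was tenfold lower, so its dose labels may be too high.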

C=C1C[C@@H]2[C@H](CC[C@]3(C)C(=O)CC[C@@H]23)[C@@]2(C)C=CC(=O)C=C12 [Exemestane]
relative JC-1 red fluorescence
Conditions	8 h	16 h	24 h	32 h	40 h	48 h	56 h	64 h	72 h
0.1 µM, coculture fibroblast: C12385	0.838	0.691	0.703	0.628	0.578	0.558	0.545	0.538	0.533
0.1 µM, coculture fibroblast: H6013	0.871	0.743	0.754	0.756	0.757	0.786	0.758	0.756	0.711
0.1 µM, coculture fibroblast: H6019	0.725	0.612	0.588	0.51	0.472	0.454	0.42	0.399	0.374
0.1 µM, coculture fibroblast: H6076	0.727	0.632	0.612	0.581	0.576	0.543	0.563	0.548	0.548
0.1 µM, coculture fibroblast: H6231	0.775	0.712	0.685	0.613	0.578	0.544	0.525	0.509	0.473
0.1 µM, coculture fibroblast: HADF	0.824	0.7208	0.691	0.663	0.65276	0.665	0.614	0.603	0.565
0.1 µM, coculture fibroblast: HCFa	0.82	0.703	0.692	0.678	0.643	0.6476	0.584	0.5662	0.515
0.1 µM, coculture fibroblast: HCPF	0.761	0.684	0.657	0.598	0.586	0.553	0.53	0.501	0.4838
0.1 µM, coculture fibroblast: HHSteC	0.8277	0.737	0.7219	0.7002	0.693	0.705	0.645	0.632	0.571
0.1 µM, coculture fibroblast: HMF	0.774	0.6575	0.619	0.581	0.56	0.534	0.53	0.51	0.501
0.1 µM, coculture fibroblast: HPFa	0.894	0.84	0.791	0.766	0.751	0.763	0.667	0.631	0.548
0.1 µM, coculture fibroblast: HUF	0.846	0.721	0.694	0.625	0.57	0.545	0.516	0.504	0.498
0.1 µM, coculture fibroblast: Hs5	0.812	0.703	0.683	0.625	0.6094	0.568	0.571	0.541	0.523
0.1 µM, coculture fibroblast: Hs27A	0.77	0.705	0.667	0.651	0.62	0.68	0.589	0.57	0.49
0.1 µM, coculture fibroblast: Hs343T	0.7867	0.692	0.643	0.597	0.564	0.524	0.505	0.484	0.471
0.1 µM, coculture fibroblast: WS1	0.8057	0.656	0.653	0.568	0.52	0.498	0.471	0.442	0.432
1 µM, coculture fibroblast: C12385	0.796	0.6675	0.665	0.58	0.538	0.508	0.495	0.488	0.479
1 µM, coculture fibroblast: H6013	0.831	0.738	0.734	0.722	0.702	0.73	0.7	0.684	0.646
1 µM, coculture fibroblast: H6019	0.7536	0.658	0.654	0.58	0.5442	0.525	0.492	0.462	0.438
1 µM, coculture fibroblast: H6076	0.783	0.651	0.641	0.594	0.567	0.543	0.55	0.554	0.552
1 µM, coculture fibroblast: H6231	0.7911	0.72371	0.71	0.654	0.621	0.584	0.569	0.54	0.519
1 µM, coculture fibroblast: HADF	0.823	0.7209	0.698	0.665	0.644	0.66	0.61	0.602	0.562
1 µM, coculture fibroblast: HCFa	0.818	0.716	0.704	0.662	0.645	0.66	0.588	0.575	0.515
1 µM, coculture fibroblast: HCPF	0.8056	0.735	0.718	0.663	0.635	0.604	0.58	0.56	0.539
1 µM, coculture fibroblast: HHSteC	0.834	0.7515	0.726	0.684	0.671	0.677	0.608	0.584	0.53
1 µM, coculture fibroblast: HMF	0.799	0.692	0.7	0.667	0.646	0.625	0.626	0.618	0.61
1 µM, coculture fibroblast: HPFa	0.8768	0.81	0.793	0.745	0.725	0.731	0.637	0.596	0.51
1 µM, coculture fibroblast: HUF	0.859	0.729	0.71	0.64	0.585	0.564	0.539	0.526	0.513
1 µM, coculture fibroblast: Hs5	0.806	0.685	0.6635	0.6093	0.5979	0.559	0.558	0.539	0.519
1 µM, coculture fibroblast: Hs27A	0.802	0.746	0.747	0.739	0.72	0.79	0.687	0.676	0.593
1 µM, coculture fibroblast: Hs343T	0.79	0.6557	0.64	0.60249	0.568	0.537	0.5229	0.5083	0.506
1 µM, coculture fibroblast: WS1	0.806	0.676	0.674	0.603	0.56	0.535	0.507	0.485	0.48
